# Measurements: PubChem BioAssay AID540276 (National Center for Advancing Translational Sciences (NCATS), 2011)
# The whole screen tested about 300,000 compounds, of which about 5,400 (1.8%) were called active. Inconclusive results, whose numbers are uncertain, are shown with a selection of clear calls. Calls follow the shape of the full dose curve; tested in HEK293 cells. A potency beside an inconclusive call is a rough fit, not a confirmed value.
# Assay: qHTS for inhibitors of binding or entry into cells for Marburg Virus
# Settings: Marburg virus pseudotyped entry inhibition, cell reporter; activity change, negative = inhibition: at 37.8 µM (top of the series) unless noted
# % is scaled to controls: 0 for no effect and ±100 for the full control effect; potency is read from the fitted curve at half-maximal effect.
Structure (SMILES),"activity change, negative = inhibition",Potency
COc1ccc(-c2nc(C#N)c(NC(C)C)o2)cc1,inactive: 0.593%,–
Nc1c(C(=O)OCC2CCCO2)c2nc3ccccc3nc2n1C1CCCCC1 (stereo unspecified),–,"inconclusive: 2.06 µM [inhibitor, full curve]"
CC(C)(C)c1ccccc1NC(=S)NC1CCCCC1,–,"inconclusive: 1.41 µM [inhibitor, full curve, poor fit]"
CC(=O)c1cccc(NS(=O)(=O)N2CCCCC2)c1,inactive: 9.51% [at 46.1 µM],–
COc1ccc(C(=O)NCc2csc(C)n2)cc1OC1CCN(C(C)=O)CC1,–,"inconclusive: 35.5 µM [activator, single point]"
CCc1nc2sc3ccccc3c(=O)c2c(=O)n1CCOC,inactive: -2.2%,–
COc1cc(OC)cc(-c2nc3nc(C)c(CCC(=O)Nc4ccc(C)c(C)c4)c(C)n3n2)c1,inactive: 22.2% [at 46.1 µM],–
O=C(Nc1nc2ccc3ccccc3c2s1)c1ccc(N2CCCCC2)c([N+](=O)[O-])c1,inactive: -5.13%,–
CC(=O)NC(c1ccc(C(C)C)cc1)c1c(O)ccc2ccccc12 (stereo unspecified),–,"inconclusive: 17.8 µM [inhibitor, single point]"
CN(C)c1ccc(C(=O)C(O)c2ccccc2Cl)cc1 (stereo unspecified),–,"inconclusive: 2.82 µM [inhibitor, full curve, poor fit]"
Cc1ccc2c3c(c(SCC(=O)Nc4nonc4C)nc2c1)CCCC3,–,"inconclusive: 16.4 µM [inhibitor, single point]"
Cc1ccc(C)c(N2CCN(C(=O)Cn3ncc4c(=O)oc5ccccc5c43)CC2)c1,–,"inconclusive: 3.55 µM [activator, full curve, poor fit]"
COc1ccccc1CN(CC(=O)NCc1ccco1)C(=O)CNS(=O)(=O)c1ccc(C)cc1,–,inactive
CC(C)CC(=O)Nc1nnc(SCC(=O)Nc2nccs2)s1,inactive: 26.7%,–
CCCC(=O)NC(c1ccc(OC)c(OC)c1)c1cc(Cl)c2cccnc2c1O (stereo unspecified),–,active: 10 µM
Cc1cc(NS(=O)(=O)c2ccc(NC(=O)Nc3cccc(Cl)c3)cc2)no1,–,"inconclusive: 0.0046 µM [inhibitor, full curve, poor fit]"
CN(C)CCNC(=O)COc1ccc(C23CC4CC(CC(C4)C2)C3)cc1,–,active: 3.98 µM
CCOC(=O)c1cccc(NC(=O)c2ccco2)c1,–,"inconclusive: 5.17 µM [activator, full curve, poor fit]"
CCc1ccccc1NC(c1nnc(-c2cccc(F)c2)o1)c1ccc(F)cc1Cl (stereo unspecified),inactive: -25.2% [at 46.1 µM],–
Cn1cccc1-c1nc2ccc(NC(=O)c3cccs3)cc2[nH]1,–,"inconclusive: 35.5 µM [inhibitor, single point]"
Cc1cccnc1NC(=O)c1c(O)c2ccccc2n(C)c1=O,inactive: 13%,–
Cc1ccc(C(=O)NN2C(=O)CSC2=S)cc1,inactive: 3.28%,–
O=[N+]([O-])c1cccc(-c2ccc(CN3CCCCC3)o2)c1,–,"inconclusive: 2 µM [inhibitor, single point]"

# Rewritten bar-delimited: entries from further up
Structure (SMILES) | activity change, negative = inhibition | Potency
Cn1cccc1-c1nc2ccc(NC(=O)c3cccs3)cc2[nH]1 | – | inconclusive: 35.5 µM [inhibitor, single point]
Cc1cccnc1NC(=O)c1c(O)c2ccccc2n(C)c1=O | inactive: 13% | –
Cc1ccc(C(=O)NN2C(=O)CSC2=S)cc1 | inactive: 3.28% | –

# Next part.

Structure (SMILES),"activity change, negative = inhibition",Potency
CN(C)CC(O)COc1ccc(C(C)(C)c2ccc(OCC(O)CN(C)C)cc2)cc1 (stereo unspecified),–,"inconclusive: 7.08 µM [inhibitor, partial curve, poor fit]"
CN(C)C(CNC(=O)CSC(=S)N1CCCC1)c1ccccc1 (stereo unspecified),inactive: -28.7%,–
Cc1ccccc1NC(=S)N(CCN(C)C)C(C)c1cccnc1 (stereo unspecified),–,"inconclusive: 3.55 µM [inhibitor, partial curve, poor fit]"
CN(C)C(=O)NC(Nc1cccc([N+](=O)[O-])c1)C(Cl)(Cl)Cl (stereo unspecified),inactive: 2.4%,–
Cn1c(=O)c2c(nc(N/N=C/c3c(O)n(C4CCCCC4)c(=S)[nH]c3=O)n2C)n(C)c1=O,inactive: 9.67%,–
NS(=O)(=O)c1ccc(NC(=O)CN2CCCc3ccccc32)cc1,–,"inconclusive: 8.91 µM [activator, partial curve, poor fit]"
COc1cccc(-n2cnc3sc(C)cc3c2=O)c1,inactive: 19.3% [at 46.1 µM],–
COc1ccc(S(=O)(=O)n2nc(-c3ccco3)nc2NCc2ccc(N(C)C)cc2)cc1,–,"inconclusive: 6.31 µM [activator, single point]"
CNc1ccc(/C=C(\C#N)c2ccccn2)cc1[N+](=O)[O-],–,"inconclusive: 17.8 µM [activator, partial curve, poor fit]"
Cc1cc(NC(=O)c2ccco2)c(=O)n(Cc2cccc(C(F)(F)F)c2)c1,–,"inconclusive: 8.91 µM [inhibitor, partial curve]"
COc1cc(C(=O)NCC(c2ccco2)N2CCOCC2)cc(OC)c1OC (stereo unspecified),inactive: -3.85%,–
CCn1nc(NS(=O)(=O)c2ccc([N+](=O)[O-])cc2)c2cc3ccccc3nc21,–,"inconclusive: 3.16 µM [activator, single point]"
CCN1CCN(Cc2nc3cc(NC(=O)c4cc(OC)c(OC)c(OC)c4)ccc3n2CC)CC1,–,"inconclusive: 4.47 µM [inhibitor, partial curve, poor fit]"
Cc1nn2c(nc(N3CCCCC3)c3ccccc32)c1C=O,–,"inconclusive: 25.1 µM [inhibitor, single point]"
Clc1cccc(-c2nc(-c3ccccn3)no2)c1,–,"inconclusive: 5.01 µM [inhibitor, full curve]"
CN(C)S(=O)(=O)c1cccc(NC(=O)COC(=O)c2ccc([N+](=O)[O-])o2)c1,inactive: -3.51%,–
O=C(Nc1nnc(Cc2ccccc2)s1)C1CCN(C(=O)c2ccco2)CC1,inactive: 3.62% [at 46.1 µM],–
COc1cc2c(C(=O)NCc3ccc(C)o3)cn(CC(C)C)c(=O)c2cc1OC,–,"inconclusive: 31.6 µM [inhibitor, single point]"
CC(C)(C)c1csc(NC(=O)Cn2cnc3ccccc3c2=O)n1,inactive: -9.96%,–
Cc1ccc(C)c(N(CC(=O)NC2CCCC2)C(=O)c2cc3cc4cccc(C)c4nc3s2)c1,–,"inconclusive: 13 µM [inhibitor, partial curve, poor fit]"
COc1ccccc1N1CCN(C(=O)CN2C(=O)COc3ccc(S(=O)(=O)N4CCCCCC4)cc32)CC1,–,"inconclusive: 6.31 µM [inhibitor, partial curve, poor fit]"
O=C1CC(C(=O)Nc2ccccc2)C2(CCCCC2)O1 (stereo unspecified),–,"inconclusive: 2.51 µM [activator, partial curve, poor fit]"
CC(=O)OCC(=O)C12OC(C)(C)OC1CC1C3CC=C4CC(O)CCC4(C)C3CCC12C (stereo unspecified),–,"inconclusive: 35.5 µM [activator, single point]"
